From paper PMC8325298

Chains of the proteins cited; added tags and fusions are not shown.
UniProt O95782: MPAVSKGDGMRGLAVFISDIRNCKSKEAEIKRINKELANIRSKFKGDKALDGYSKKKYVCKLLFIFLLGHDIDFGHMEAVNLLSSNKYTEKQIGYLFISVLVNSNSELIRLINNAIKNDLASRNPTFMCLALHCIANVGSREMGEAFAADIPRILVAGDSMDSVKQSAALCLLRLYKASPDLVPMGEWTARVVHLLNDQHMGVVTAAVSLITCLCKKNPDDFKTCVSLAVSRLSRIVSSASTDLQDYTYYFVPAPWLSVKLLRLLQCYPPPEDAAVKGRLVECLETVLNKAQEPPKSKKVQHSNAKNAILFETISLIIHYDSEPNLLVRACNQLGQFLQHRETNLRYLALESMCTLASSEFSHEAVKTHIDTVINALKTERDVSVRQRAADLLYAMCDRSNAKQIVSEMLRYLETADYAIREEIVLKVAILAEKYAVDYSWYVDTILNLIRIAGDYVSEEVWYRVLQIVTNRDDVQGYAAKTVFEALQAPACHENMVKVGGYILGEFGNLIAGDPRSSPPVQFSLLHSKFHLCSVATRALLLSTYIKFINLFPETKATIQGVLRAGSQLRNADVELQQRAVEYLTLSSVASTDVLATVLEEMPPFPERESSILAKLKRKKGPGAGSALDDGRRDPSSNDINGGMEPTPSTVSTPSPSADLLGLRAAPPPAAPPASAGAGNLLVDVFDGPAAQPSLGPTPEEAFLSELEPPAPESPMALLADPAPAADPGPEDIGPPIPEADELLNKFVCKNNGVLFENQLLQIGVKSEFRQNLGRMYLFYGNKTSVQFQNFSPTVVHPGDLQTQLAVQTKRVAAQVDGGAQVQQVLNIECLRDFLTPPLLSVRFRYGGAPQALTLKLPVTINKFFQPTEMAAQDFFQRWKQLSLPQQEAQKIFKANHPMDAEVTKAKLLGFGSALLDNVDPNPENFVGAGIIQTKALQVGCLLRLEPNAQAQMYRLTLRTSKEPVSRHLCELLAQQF

T1: MYO1F (bait of the immunoprecipitation followed by mass spectrometry) (UniProt O00160)
T1 sequence: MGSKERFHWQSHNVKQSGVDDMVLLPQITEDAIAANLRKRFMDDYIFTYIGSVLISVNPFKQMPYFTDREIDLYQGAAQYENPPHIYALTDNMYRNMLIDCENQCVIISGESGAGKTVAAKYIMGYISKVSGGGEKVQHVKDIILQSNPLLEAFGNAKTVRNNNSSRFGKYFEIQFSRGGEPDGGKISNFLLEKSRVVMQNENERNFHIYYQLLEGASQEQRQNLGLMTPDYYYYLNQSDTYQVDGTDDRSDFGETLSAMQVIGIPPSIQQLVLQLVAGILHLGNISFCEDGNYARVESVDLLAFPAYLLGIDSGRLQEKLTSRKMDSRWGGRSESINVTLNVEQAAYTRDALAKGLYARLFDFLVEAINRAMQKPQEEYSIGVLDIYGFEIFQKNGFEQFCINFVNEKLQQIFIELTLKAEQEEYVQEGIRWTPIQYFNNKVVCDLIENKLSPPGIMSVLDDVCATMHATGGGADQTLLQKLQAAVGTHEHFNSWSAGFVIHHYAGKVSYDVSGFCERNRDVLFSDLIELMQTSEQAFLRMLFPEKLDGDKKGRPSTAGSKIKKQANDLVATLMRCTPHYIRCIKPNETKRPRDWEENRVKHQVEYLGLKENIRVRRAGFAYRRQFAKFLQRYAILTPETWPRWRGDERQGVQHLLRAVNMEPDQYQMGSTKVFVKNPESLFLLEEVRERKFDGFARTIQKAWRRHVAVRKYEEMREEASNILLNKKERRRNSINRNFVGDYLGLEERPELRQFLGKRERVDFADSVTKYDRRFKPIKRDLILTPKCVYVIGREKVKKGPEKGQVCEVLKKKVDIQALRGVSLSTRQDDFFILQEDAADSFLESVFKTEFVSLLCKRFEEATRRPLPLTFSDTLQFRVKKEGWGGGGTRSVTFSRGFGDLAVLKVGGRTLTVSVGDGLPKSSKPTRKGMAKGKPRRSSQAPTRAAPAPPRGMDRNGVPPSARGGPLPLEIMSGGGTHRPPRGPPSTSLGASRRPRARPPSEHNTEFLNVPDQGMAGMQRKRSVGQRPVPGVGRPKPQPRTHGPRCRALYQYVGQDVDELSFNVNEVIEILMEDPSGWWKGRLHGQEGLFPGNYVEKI

T2: TAGAP (bait of the GST pulldown assay) (UniProt Q8N103)
T2 sequence: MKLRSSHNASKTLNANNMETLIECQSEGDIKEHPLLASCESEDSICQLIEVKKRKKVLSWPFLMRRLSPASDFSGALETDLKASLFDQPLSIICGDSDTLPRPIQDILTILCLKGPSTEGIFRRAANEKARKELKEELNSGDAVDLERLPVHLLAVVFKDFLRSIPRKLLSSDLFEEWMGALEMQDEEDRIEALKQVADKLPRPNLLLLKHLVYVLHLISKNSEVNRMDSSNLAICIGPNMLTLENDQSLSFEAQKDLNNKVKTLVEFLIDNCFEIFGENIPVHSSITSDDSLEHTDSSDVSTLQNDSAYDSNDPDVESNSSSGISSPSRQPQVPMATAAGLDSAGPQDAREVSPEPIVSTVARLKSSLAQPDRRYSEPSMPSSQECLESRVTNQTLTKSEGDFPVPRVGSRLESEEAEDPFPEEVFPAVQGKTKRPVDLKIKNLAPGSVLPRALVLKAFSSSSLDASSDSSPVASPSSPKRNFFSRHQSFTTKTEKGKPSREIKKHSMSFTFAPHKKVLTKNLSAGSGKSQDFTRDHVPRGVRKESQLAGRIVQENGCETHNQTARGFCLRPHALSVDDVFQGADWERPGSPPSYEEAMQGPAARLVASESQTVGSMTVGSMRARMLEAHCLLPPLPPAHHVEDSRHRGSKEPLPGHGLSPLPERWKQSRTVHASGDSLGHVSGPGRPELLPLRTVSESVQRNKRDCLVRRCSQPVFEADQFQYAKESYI

B1: Myosin 1f (MYO1F), hit of the TAGAP GST pulldown (protein, UniProt O00160 1-1098)
chain: T1 sequence

Tests used:
[1] = molecular target: T1, MYO1F (bait of the immunoprecipitation followed by mass spectrometry); assay: affinity purification with mass spectrometry; immunoprecipitation of MYO1F followed by mass spectrometry
[2] = molecular target: T2, TAGAP (bait of the GST pulldown assay); assay: affinity purification with mass spectrometry; GST pulldown assay and mass spectrometry to identify TAGAP-interacting proteins

binding [1]	binding [2]	Molecule
binds	–	α-tubulin (hit of the MYO1F immunoprecipitation with mass spectrometry)
binds	–	AP2A1 (hit of the MYO1F immunoprecipitation with mass spectrometry) (from UniProt O95782 1-977)
binds	–	β-tubulin (hit of the MYO1F immunoprecipitation with mass spectrometry)
–	binds	B1

Results are given in words; binding and its absence hold for the method and conditions named. Binding seen in cells or lysates may run through a third protein. These calls come from enrichment with a bait or labelling near it, and not all partners need be listed. For some of these results: Sequences can lack the tags named with a protein.
